Reference: PubChem BioAssay AID485314 (National Center for Advancing Translational Sciences (NCATS), 2010)
Among all 340,000 compounds or so, about 4,500 (1.3%) were called active. This list was built around the results that the source calls inconclusive (neither active nor inactive); the mix of calls is not that of the screen. The call rests on the fitted dose curve; in most records, active means well fitted inhibition curve with a large enough effect; inconclusive means small, poorly fitted or top-dose-only effect, or another doubt; inactive means no such curve, though single readings can be large or run the other way. Potencies of inconclusive entries are doubtful fits and often do not repeat.

biological target: DNA polymerase beta (Homo sapiens) (UniProt P06746); test: qHTS Assay for Inhibitors of DNA Polymerase Beta; settings: Pol beta primer extension/strand displacement, fluorescence kinetic; activity change, negative = inhibition: at 114 µM (top of the series)
Text: The base excision repair system in human cells is a target for therapeutic modulation of the response to irradiation treatment and DNA-damaging drugs. A key enzyme in this system is the bi-functional DNA polymerase known as DNA polymerase Beta (Pol Beta). The following is a homogeneous kinetic assay to study the primer extension and strand-displacement reaction catalyzed by pol beta.
A stepwise description of the 1536-well assay is shown in next Table. Three microliters of reagents (buffer in column 3 and 4 as negative control and 10 nM Pol beta in columns 1, 2, and 5-48) was dispensed into 1,536-well black solid-bottomed plate. Compounds (23 nL) were transferred via Kalypsys pin tool equipped with 1536-pin array (10 nL slotted pins, V&P Scientific, San Diego, CA). The plates were incubated for 15 min at room temperature, and 1 uL substrate (50 nM final concentration) were added to start the reaction and immediately read at 0 min read on Viewlux reader. The plate were further incubated for 10 min at room temperature, and then read on Viewlux again. Throughout the screen, reagent bottle and all liquid lines were chilled and made light-tight to minimize reagent degradation. All screening operations were performed on a fully integrated robotic system (Kalypsys, San Diego, CA) containing one RX-130 and two RX-90 anthropomorphic robotic arms (Staubli, Duncan, SC). Library plates were screened starting from the lowest and proceeding to the highest concentration, and a double-dipping step of the highest concentration was required to access higher concentrations of compounds. Vehicle-only plates, with DMSO being pin-transferred to the entire column 5-48 compound area, were inserted uniformly at the beginning and the end of each library in order to monitor for and record any shifts in the background, which can be affected by reagent dispensers or loss in enzyme activity overtime. Screening data were corrected, normalized, and concentration-effect relationships were derived by using publicly-available curve fitting algorithms developed in-house (http://ncgc.nih.gov/pub/openhts). A four parameter Hill equation was fitted to the concentration-response data by minimizing the residual error between the modeled and observed responses.
On the % scale 0 is the no-effect control and ±100 the full control effect; potency means the concentration at half of the fitted maximal effect.

Potency, inconclusive:
Cc1ccc(-c2noc(CSc3nnc(CCc4ccccc4)n3-c3ccccc3)n2)cc1 63.1 µM [inhibitor, partial curve, poor fit]
C/C(=N\NC(=O)c1ccc(OC2OCCOC2Oc2ccc(C(=O)N/N=C(\C)c3ccncc3)cc2)cc1)c1ccncc1 (configuration not stated) 4.47 µM [inhibitor, full curve]
CC(C)OC(=O)c1c(NC(=O)C2CC=CCC2C(=O)O)sc2c1CCCCC2 (configuration not stated) 25.1 µM [inhibitor, single point]
COC(=O)CCc1c(C)c(C(=O)c2ccco2)c2ccccn12 89.1 µM [inhibitor, single point]
COc1cc(/C=C2\SC(=N)N(c3ccc(F)cc3)C2=O)ccc1O 22.4 µM [inhibitor, full curve]
CCN(C(=O)c1cc2c(s1)-c1ccccc1OC2)c1cc(Cl)ccc1OC 0.631 µM [inhibitor, full curve, poor fit]
Cc1ccccc1NS(=O)(=O)c1nnc(NC(=O)c2ccccc2C)s1 100 µM [inhibitor, single point]
Cc1ccc(C(=O)NC(C(=O)NC2CCCC2)c2ccccc2)cc1 (configuration not stated) 0.126 µM [inhibitor, full curve, poor fit]
Cc1ccc(-n2c(Cc3cccn3C)nnc2SCC(=O)NCc2ccco2)cc1 89.1 µM [inhibitor, single point]
O=C(NCc1cccc(Cl)c1)C(=O)Nc1ccc2nc3n(c(=O)c2c1)CCCCC3 22.4 µM [inhibitor, partial curve]
O=C(CN1C(=O)/C(=C/c2cccc(Cl)c2)SC1=S)NC1C=CS(=O)(=O)C1 (configuration not stated) 89.1 µM [inhibitor, single point]
Cc1cnc(NC(=O)c2ccc(Cl)nc2)s1 39.8 µM [inhibitor, single point]
CC1(C)C(=O)Nc2ccccc2N1C(=O)CSc1ncccn1 25.1 µM [inhibitor, full curve]
Cc1ccc(-c2nc(-c3cc4cccc(OCc5cccc(C)c5)c4oc3=O)no2)cc1 14.1 µM [inhibitor, full curve]
CC(C)(C)c1cccc(OCCCSc2ncccn2)c1 28.2 µM [inhibitor, single point]
Oc1ccc(CN2CCCc3ccccc32)c2cccnc12 100 µM [inhibitor, single point]
COc1ccccc1NC(=O)CSc1oc(-c2cccs2)nc1S(=O)(=O)c1ccc(Br)cc1 25.1 µM [inhibitor, single point]
N#Cc1c(N)n(CCNC(=O)c2ccc(Cl)cc2)c2nc3ccccc3nc12 28.2 µM [inhibitor, full curve]
Cc1ccc(OCCC(=O)OCc2csc(CC(=O)Nc3ccccc3C)n2)cc1 0.631 µM [inhibitor, full curve, poor fit]
COC(=O)CSC1=C(C#N)C(c2ccc(Cl)cc2)C(C(=O)OC)C(=O)N1 (configuration not stated) 100 µM [inhibitor, single point]
COc1ccc(-c2nc(SCC(=O)Nc3ccc4c(c3)OCO4)c(-c3ccc(OC)cc3)[nH]2)cc1 7.94 µM [inhibitor, full curve]
O=C1Nc2ccc(S(=O)(=O)Nc3ccccc3O)c3cccc1c23 11.2 µM [inhibitor, full curve, poor fit]
O=C(OCC(=O)N1CCN(S(=O)(=O)c2ccccc2)CC1)c1ccc([N+](=O)[O-])o1 31.6 µM [inhibitor, single point]
CC(=O)C(C(C)=O)c1c(Cl)c(O)c(O)c2c(C(=O)c3ccccc3)coc12 44.7 µM [inhibitor, partial curve]
CCOc1ccc(NC(=O)Nc2ccc3nccnc3c2)cc1 39.8 µM [inhibitor, full curve, poor fit]
COc1ccc2c(c1OC)C(=O)OC2Nc1nc(-c2ccc(-c3ccccc3)cc2)cs1 (configuration not stated) 25.1 µM [inhibitor, single point]
CCCOc1ccc(-c2nn(-c3ccccc3)cc2C2NC(=O)NC(C)=C2C(=O)OC)cc1C (configuration not stated) 0.355 µM [inhibitor, full curve, poor fit]
O=C(O)C1C2C=CC(C2)C1C(=O)Nc1ccc2c(c1)OCCO2 (configuration not stated) 100 µM [inhibitor, partial curve, poor fit]

Reprinted at random: two compounds from above
Potency, inconclusive:
CCN(C(=O)c1cc2c(s1)-c1ccccc1OC2)c1cc(Cl)ccc1OC 0.631 µM [inhibitor, full curve, poor fit]
COc1ccc2c(c1OC)C(=O)OC2Nc1nc(-c2ccc(-c3ccccc3)cc2)cs1 (configuration not stated) 25.1 µM [inhibitor, single point]

Next part.

Potency, inactive:
COc1ccc(C(=O)N(c2ccc(OC)cc2)S(=O)(=O)c2cccs2)cc1
COc1cccc(CN2CCc3nc(SCC(=O)Nc4ccccc4)[nH]c(=O)c3C2)c1
CC(C)CN1CCC(=O)N([C@H](COc2ccccc2)c2ccccc2)CC1
CCOc1ccc(NC(=O)c2ccc(-c3nc(COc4ccccc4)c(C)o3)cc2)cc1
Cc1cc(C)cc(OC(=O)c2snnc2C)c1

Potency, active:
COc1cc2ccc(=O)oc2cc1OCC(O)C(C)(C)O (configuration not stated) 35.5 µM
COc1ccc([N+](=O)[O-])cc1C(=O)Nc1ccc(Cc2ccncc2)cc1 11.2 µM
CC(C)n1c(=S)[nH]c2scc(-c3cccs3)c2c1=O 7.94 µM
CC1=CN2C(=N)/C(=C/c3ccc([N+](=O)[O-])o3)C(=O)N=C2S1 17.8 µM
Cc1c(C(=O)O)cccc1-c1ccc(/C=N/n2cnnc2)o1 25.1 µM
CN(Cc1ccccc1)S(=O)(=O)c1ccc2[nH]c(=O)ccc2c1 31.6 µM
COc1cc(Cl)c(C)cc1NC(=O)CSc1ncc(S(=O)(=O)c2ccc(C(C)(C)C)cc2)c(=O)[nH]1 10 µM
O=C(O)CCCNC(=O)/C=C/c1ccco1 2.82 µM

Activity change, negative = inhibition, inconclusive:
OCCNc1nc(Nc2ccc(O)cc2)nc2ccccc12 -40.8% [inhibitor]
